According to the supplement of paper PMC4807443:
Structures can show the parent of a compound that is named as a salt. This is one part of the list. The numbers are fractions of the control, whatever unit the source prints. Most values lie at the level of the controls, where differences are scatter.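 MIN6 is a mouse insulinoma beta-cell line that stably carries a lentiviral reporter in which the Pdx1 and Ins1 promoters each drive a nucleus-targeted fluorescent protein; cells were counted by automated imaging with a Hoechst nuclear stain. In the screen, a drug was a possible hit when its Ins1 promoter readout lay beyond two median absolute deviations from the DMSO controls while Pdx1 activity stayed near normal.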

Tested on: MIN6
Assay: % Pdx1+ Ins1+ (double-positive, mature) cells relative to DMSO control (fold of DMSO control); higher = more mature Ins1 promoter-active cells
Settings: 8.5 µM; 48 h; glucose 5 mM

| Structure (SMILES) | % Pdx1+ Ins1+ |
| --- | --- |
| C[C@H](O)C(=O)Nc1c(I)c(C(=O)NC(CO)CO)c(I)c(C(=O)NC(CO)CO)c1I [Iopamidol] | 1.07 |
| CO/N=C(\C(=O)N[C@@H]1C(=O)N2C(C(=O)O)=C(COC(N)=O)CS[C@H]12)c1ccco1 [Cefuroxime sodium salt] | 0.788 |
| O=C(NCC(O)CO)c1c(I)c(C(=O)NCC(O)CO)c(I)c(N(CCO)C(=O)CO)c1I (stereo not given) [Ioversol] | 0.92 |
| Nc1ccc(S(=O)(=O)Nc2ccnn2-c2ccccc2)cc1 [Sulfaphenazole] | 1.12 |
| CC1Cc2ccccc2N1NC(=O)c1ccc(Cl)c(S(N)(=O)=O)c1 (stereo not given) [Indapamide] | 1.1 |
| Cc1cc(CC(=O)O)n(C)c1C(=O)c1ccc(Cl)cc1 [Zomepirac sodium salt] | 0.896 |
| COc1ccc(C2CNC(=O)C2)cc1OC1CCCC1 (stereo not given) [Rolipram] | 0.951 |
| CC[N+]1(C)C2CCC1CC(OC(=O)C1CCC(C(=O)OC3CC4CCC(C3)[N+]4(C)CC)(c3ccccc3)c3ccccc31)C2 (stereo not drawn) [beta- Belladonnine dichloroethylate] | 0.94 |
| c1ccc2c3c([nH]c2c1)C1C2CCC(C4CCCNC42)N1CC3 (stereo not given) [Nitrarine dihydrochloride] | 0.864 |
| CN1CC[C@]23c4ccccc4N[C@H]1[C@]21CCN(C)[C@H]3Nc2ccccc21 [Calycanthine] | 0.913 |
| c1ccc([C@H]2CN3CCSC3=N2)cc1 [Levamisole hydrochloride] | 1.13 |
| CCC(=O)O[C@]1(C(=O)CCl)[C@@H](C)C[C@H]2[C@@H]3CCC4=CC(=O)C=C[C@]4(C)[C@@]3(F)[C@@H](O)C[C@@]21C [Clobetasol propionate] | 0.981 |
| O=C1C[C@@H](c2ccc(O)cc2)Oc2cc(O)cc(O)c21 [Naringenine] | 0.832 |
| O=S(=O)(O)c1cc(O)ccc1O [Ethamsylate] | 0.985 |
| CCOC(=O)Oc1c(OC)cc(C(=O)O[C@@H]2C[C@@H]3CN4CCc5c([nH]c6cc(OC)ccc56)[C@H]4C[C@@H]3[C@H](C(=O)OC)[C@H]2OC)cc1OC [Syrosingopine] | 0.731 |
| O=C1OCCN1/N=C/c1ccc([N+](=O)[O-])o1 [Furazolidone] | 0.99 |
| CN(C)c1nc(N(C)C)nc(N(C)C)n1 [Altretamine] | 1.02 |
| Nc1nc2n[nH]nc2c(=O)[nH]1 [Azaguanine-8] | 1.04 |

| Structure (SMILES) | % Pdx1+ Ins1+ |
| --- | --- |
| CC(C)NCC(O)c1ccc2ccccc2c1 (stereo not given) [Pronethalol hydrochloride] | 0.974 |
| C[C@H]1C[C@@H]2[C@H]([C@@H](O)C[C@@]3(C)[C@H]2CC[C@]3(O)C(=O)CO)[C@@]2(C)C=CC(=O)C=C12 [Methylprednisolone, 6-alpha] | 1.02 |
| COc1cc([C@@H]2c3cc4c(cc3[C@@H](O[C@@H]3O[C@@H]5CO[C@@H](C)O[C@H]5[C@H](O)[C@H]3O)[C@H]3COC(=O)[C@H]23)OCO4)cc(OC)c1O [Etoposide] | 0.541 |
| CCCNCC(O)COc1ccccc1C(=O)CCc1ccccc1 (stereo not given) [Propafenone hydrochloride] | 0.876 |
| CC(=O)NC1[C@@H](O)OC(CO)[C@@H](O)[C@H]1O[C@H](C)C(=O)O (stereo in doubt) [Muramic acid, N-acetyl] | 0.977 |
| CC[C@]12CCCN3CCc4c(n(c5ccccc45)[C@](O)(C(=O)OC)C1)[C@@H]32 [Epivincamine] | 0.958 |
| CC(C)NC[C@@H](O)COc1cccc2ccccc12 [(R)-Propranolol hydrochloride] | 0.854 |
| CCN(CC)CCc1nc(-c2ccccc2)no1 [Oxalamine citrate salt] | 0.941 |
| CNCC(O)c1ccc(OC(=O)C(C)(C)C)c(OC(=O)C(C)(C)C)c1 (stereo not given) [Dipivefrin hydrochloride] | 0.84 |
| CC(NCCC(c1ccccc1)c1ccccc1)c1ccccc1 (stereo not given) [Fendiline hydrochloride] | 0.95 |
| Cc1c(N(C)CS(=O)(=O)O)c(=O)n(-c2ccccc2)n1C [Dipyrone] | 0.923 |
| CN(C)[C@@H]1C(O)=C(C(=O)NCN2CCCC2)C(=O)[C@@]2(O)C(O)=C3C(=O)c4c(O)cccc4[C@@](C)(O)[C@H]3C[C@@H]12 [Rolitetracycline] | 1.08 |
| Nc1cc(C(Cl)=C(Cl)Cl)c(S(N)(=O)=O)cc1S(N)(=O)=O [Clorsulon] | 0.843 |
| COc1c2occc2c(OC)c2c(=O)cc(C)oc12 [Khellin] | 1.12 |
| NNc1nncc2ccccc12 [Hydralazine hydrochloride] | 0.895 |
| C[C@H](CCC(=O)O)[C@H]1CC[C@H]2[C@@H]3[C@H](O)C[C@@H]4C[C@H](O)CC[C@]4(C)[C@H]3CC[C@]12C [Chenodiol] | 0.956 |
| CN1CCN(CCCN2c3ccccc3Sc3ccc(Cl)cc32)CC1 [Prochlorperazine dimaleate] | 0.81 |

Reprinted from the listing for reference:

| Structure (SMILES) | % Pdx1+ Ins1+ |
| --- | --- |
| CCN(CC)CCc1nc(-c2ccccc2)no1 [Oxalamine citrate salt] | 0.941 |
| CNCC(O)c1ccc(OC(=O)C(C)(C)C)c(OC(=O)C(C)(C)C)c1 (stereo not given) [Dipivefrin hydrochloride] | 0.84 |
